In paper PMC3040216:
Results are given in words; binding and its absence hold for the method and conditions named. In cells and extracts the contact can be indirect. Some results given as binding are weak or reduced against the parent protein; the word gives no strength. For some assays here: Sequences can lack the tags named with a protein. One block for each binder: values may come before it.

Key:
[1] = target: T1, myc-ERp90 (human) (UniProt Q9P2K2); test: co-IP; IP by the tag (anti-HA from A11 lysates; anti-myc from HEK293 transiently expressing myc-ERp90), Western blotting with anti-ERp90 or anti-ERFAD
T1 sequence: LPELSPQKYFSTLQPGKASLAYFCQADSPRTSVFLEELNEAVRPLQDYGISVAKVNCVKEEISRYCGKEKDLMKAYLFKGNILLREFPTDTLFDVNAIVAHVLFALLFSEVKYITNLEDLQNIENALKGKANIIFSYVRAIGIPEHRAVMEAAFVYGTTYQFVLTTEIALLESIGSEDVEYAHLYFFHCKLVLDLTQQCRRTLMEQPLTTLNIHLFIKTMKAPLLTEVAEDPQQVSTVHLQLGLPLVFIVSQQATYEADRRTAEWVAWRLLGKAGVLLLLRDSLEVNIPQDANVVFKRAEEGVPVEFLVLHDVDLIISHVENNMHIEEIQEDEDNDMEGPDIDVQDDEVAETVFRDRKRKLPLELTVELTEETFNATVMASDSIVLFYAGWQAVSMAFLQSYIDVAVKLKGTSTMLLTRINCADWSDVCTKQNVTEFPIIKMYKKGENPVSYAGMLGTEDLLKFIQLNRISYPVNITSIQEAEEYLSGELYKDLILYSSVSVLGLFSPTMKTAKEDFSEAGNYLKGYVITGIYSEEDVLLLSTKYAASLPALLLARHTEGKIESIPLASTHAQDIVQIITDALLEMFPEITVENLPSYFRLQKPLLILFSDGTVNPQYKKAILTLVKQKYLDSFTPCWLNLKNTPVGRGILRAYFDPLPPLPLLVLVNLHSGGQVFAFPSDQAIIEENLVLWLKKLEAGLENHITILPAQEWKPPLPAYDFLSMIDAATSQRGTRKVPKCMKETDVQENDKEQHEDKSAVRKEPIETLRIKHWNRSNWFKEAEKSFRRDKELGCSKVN

[2] = target: T2, ERFAD-HA (UniProt Q8IWF2); test: as above
T2 sequence: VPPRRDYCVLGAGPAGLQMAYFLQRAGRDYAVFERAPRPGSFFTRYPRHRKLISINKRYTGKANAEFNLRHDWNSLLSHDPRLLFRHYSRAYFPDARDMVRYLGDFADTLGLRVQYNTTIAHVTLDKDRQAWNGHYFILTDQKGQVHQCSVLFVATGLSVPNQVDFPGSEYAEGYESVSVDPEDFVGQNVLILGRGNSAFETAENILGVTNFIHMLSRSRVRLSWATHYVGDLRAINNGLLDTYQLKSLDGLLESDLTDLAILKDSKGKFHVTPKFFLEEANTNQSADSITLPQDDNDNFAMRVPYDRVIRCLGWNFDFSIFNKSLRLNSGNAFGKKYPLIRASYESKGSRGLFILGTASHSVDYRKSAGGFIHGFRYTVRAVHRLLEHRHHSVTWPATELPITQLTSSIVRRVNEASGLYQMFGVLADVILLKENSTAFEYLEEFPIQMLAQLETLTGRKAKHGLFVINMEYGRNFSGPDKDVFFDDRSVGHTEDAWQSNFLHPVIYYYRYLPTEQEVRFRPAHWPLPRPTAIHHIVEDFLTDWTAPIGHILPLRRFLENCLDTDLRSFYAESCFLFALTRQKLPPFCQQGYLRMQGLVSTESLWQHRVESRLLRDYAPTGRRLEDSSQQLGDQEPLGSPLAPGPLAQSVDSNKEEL

[3] = target: T2, ERFAD-HA; test: co-IP; [35S]-labelled A11 cells, Triton X-100 lysates, IP with anti-HA, reducing SDS-PAGE and autoradiography; re-IP with anti-HA, anti-SEL1L or anti-ERp90; cells also pretreated under reducing conditions or with diamide
[4] = target: T3, ERFAD (endogenous) (human (endogenous in HEK293)) (UniProt Q8IWF2); test: co-IP; [35S] pulse-labelled HEK293 cells, IP with ERFAD antiserum (pre-immune serum as control), re-IP with anti-ERFAD or anti-ERp90, autoradiography
T3 sequence: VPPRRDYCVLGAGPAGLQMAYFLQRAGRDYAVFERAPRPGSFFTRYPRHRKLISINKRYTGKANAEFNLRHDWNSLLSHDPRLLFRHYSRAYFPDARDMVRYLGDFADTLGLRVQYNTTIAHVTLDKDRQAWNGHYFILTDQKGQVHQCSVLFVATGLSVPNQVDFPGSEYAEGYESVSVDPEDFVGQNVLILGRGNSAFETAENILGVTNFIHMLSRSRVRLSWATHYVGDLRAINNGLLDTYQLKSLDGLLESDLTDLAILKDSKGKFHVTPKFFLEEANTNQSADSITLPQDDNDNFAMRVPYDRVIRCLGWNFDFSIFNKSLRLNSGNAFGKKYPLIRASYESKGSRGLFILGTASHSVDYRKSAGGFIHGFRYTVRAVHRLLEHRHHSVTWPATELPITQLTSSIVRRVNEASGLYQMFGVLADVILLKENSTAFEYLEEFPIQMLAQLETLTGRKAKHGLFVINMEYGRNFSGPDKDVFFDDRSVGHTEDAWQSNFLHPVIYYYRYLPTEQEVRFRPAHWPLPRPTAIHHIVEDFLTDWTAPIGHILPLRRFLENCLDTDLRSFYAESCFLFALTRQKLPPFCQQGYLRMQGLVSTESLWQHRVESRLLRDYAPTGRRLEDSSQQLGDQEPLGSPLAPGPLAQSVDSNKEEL

[5] = target: T4, ERFAD-His-FLAG (UniProt Q8IWF2); test: co-IP; [35S]-labelled 3B2B-myc-ERp90 cells, native anti-FLAG IP, elution with FLAG peptide under native conditions, second native IP with anti-myc
T4 sequence: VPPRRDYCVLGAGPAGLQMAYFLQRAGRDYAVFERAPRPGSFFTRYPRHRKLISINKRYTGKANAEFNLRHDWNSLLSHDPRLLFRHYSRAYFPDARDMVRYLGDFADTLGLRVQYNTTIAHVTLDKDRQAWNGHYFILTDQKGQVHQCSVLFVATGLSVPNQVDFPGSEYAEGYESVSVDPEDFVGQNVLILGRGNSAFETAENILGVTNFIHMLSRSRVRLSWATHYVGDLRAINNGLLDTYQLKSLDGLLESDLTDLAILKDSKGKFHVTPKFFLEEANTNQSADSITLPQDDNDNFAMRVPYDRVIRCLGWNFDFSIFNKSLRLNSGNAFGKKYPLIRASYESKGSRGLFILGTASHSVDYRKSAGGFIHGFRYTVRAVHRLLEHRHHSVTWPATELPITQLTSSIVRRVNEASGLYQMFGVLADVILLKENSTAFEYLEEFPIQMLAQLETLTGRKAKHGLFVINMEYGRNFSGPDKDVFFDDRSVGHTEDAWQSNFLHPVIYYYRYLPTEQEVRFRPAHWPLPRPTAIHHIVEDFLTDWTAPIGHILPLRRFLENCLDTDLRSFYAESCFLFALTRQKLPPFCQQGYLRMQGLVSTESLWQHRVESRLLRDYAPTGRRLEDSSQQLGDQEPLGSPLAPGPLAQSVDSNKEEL

- binding [1]: binds
B1: ERFAD (endogenous) (protein, UniProt Q8IWF2 27-684)
chain: VPPRRDYCVLGAGPAGLQMAYFLQRAGRDYAVFERAPRPGSFFTRYPRHRKLISINKRYTGKANAEFNLRHDWNSLLSHDPRLLFRHYSRAYFPDARDMVRYLGDFADTLGLRVQYNTTIAHVTLDKDRQAWNGHYFILTDQKGQVHQCSVLFVATGLSVPNQVDFPGSEYAEGYESVSVDPEDFVGQNVLILGRGNSAFETAENILGVTNFIHMLSRSRVRLSWATHYVGDLRAINNGLLDTYQLKSLDGLLESDLTDLAILKDSKGKFHVTPKFFLEEANTNQSADSITLPQDDNDNFAMRVPYDRVIRCLGWNFDFSIFNKSLRLNSGNAFGKKYPLIRASYESKGSRGLFILGTASHSVDYRKSAGGFIHGFRYTVRAVHRLLEHRHHSVTWPATELPITQLTSSIVRRVNEASGLYQMFGVLADVILLKENSTAFEYLEEFPIQMLAQLETLTGRKAKHGLFVINMEYGRNFSGPDKDVFFDDRSVGHTEDAWQSNFLHPVIYYYRYLPTEQEVRFRPAHWPLPRPTAIHHIVEDFLTDWTAPIGHILPLRRFLENCLDTDLRSFYAESCFLFALTRQKLPPFCQQGYLRMQGLVSTESLWQHRVESRLLRDYAPTGRRLEDSSQQLGDQEPLGSPLAPGPLAQSVDSNKEEL

- binding [2]: binds
- binding [3]: binds
- binding [4]: binds
B2: ERp90 (endogenous) (protein, UniProt Q9P2K2 28-825)
chain: LPELSPQKYFSTLQPGKASLAYFCQADSPRTSVFLEELNEAVRPLQDYGISVAKVNCVKEEISRYCGKEKDLMKAYLFKGNILLREFPTDTLFDVNAIVAHVLFALLFSEVKYITNLEDLQNIENALKGKANIIFSYVRAIGIPEHRAVMEAAFVYGTTYQFVLTTEIALLESIGSEDVEYAHLYFFHCKLVLDLTQQCRRTLMEQPLTTLNIHLFIKTMKAPLLTEVAEDPQQVSTVHLQLGLPLVFIVSQQATYEADRRTAEWVAWRLLGKAGVLLLLRDSLEVNIPQDANVVFKRAEEGVPVEFLVLHDVDLIISHVENNMHIEEIQEDEDNDMEGPDIDVQDDEVAETVFRDRKRKLPLELTVELTEETFNATVMASDSIVLFYAGWQAVSMAFLQSYIDVAVKLKGTSTMLLTRINCADWSDVCTKQNVTEFPIIKMYKKGENPVSYAGMLGTEDLLKFIQLNRISYPVNITSIQEAEEYLSGELYKDLILYSSVSVLGLFSPTMKTAKEDFSEAGNYLKGYVITGIYSEEDVLLLSTKYAASLPALLLARHTEGKIESIPLASTHAQDIVQIITDALLEMFPEITVENLPSYFRLQKPLLILFSDGTVNPQYKKAILTLVKQKYLDSFTPCWLNLKNTPVGRGILRAYFDPLPPLPLLVLVNLHSGGQVFAFPSDQAIIEENLVLWLKKLEAGLENHITILPAQEWKPPLPAYDFLSMIDAATSQRGTRKVPKCMKETDVQENDKEQHEDKSAVRKEPIETLRIKHWNRSNWFKEAEKSFRRDKELGCSKVN
modifications: N-glycans (EndoH-sensitive)

- binding [5]: binds
B3: myc-ERp90 (protein, UniProt Q9P2K2 28-825)
chain: LPELSPQKYFSTLQPGKASLAYFCQADSPRTSVFLEELNEAVRPLQDYGISVAKVNCVKEEISRYCGKEKDLMKAYLFKGNILLREFPTDTLFDVNAIVAHVLFALLFSEVKYITNLEDLQNIENALKGKANIIFSYVRAIGIPEHRAVMEAAFVYGTTYQFVLTTEIALLESIGSEDVEYAHLYFFHCKLVLDLTQQCRRTLMEQPLTTLNIHLFIKTMKAPLLTEVAEDPQQVSTVHLQLGLPLVFIVSQQATYEADRRTAEWVAWRLLGKAGVLLLLRDSLEVNIPQDANVVFKRAEEGVPVEFLVLHDVDLIISHVENNMHIEEIQEDEDNDMEGPDIDVQDDEVAETVFRDRKRKLPLELTVELTEETFNATVMASDSIVLFYAGWQAVSMAFLQSYIDVAVKLKGTSTMLLTRINCADWSDVCTKQNVTEFPIIKMYKKGENPVSYAGMLGTEDLLKFIQLNRISYPVNITSIQEAEEYLSGELYKDLILYSSVSVLGLFSPTMKTAKEDFSEAGNYLKGYVITGIYSEEDVLLLSTKYAASLPALLLARHTEGKIESIPLASTHAQDIVQIITDALLEMFPEITVENLPSYFRLQKPLLILFSDGTVNPQYKKAILTLVKQKYLDSFTPCWLNLKNTPVGRGILRAYFDPLPPLPLLVLVNLHSGGQVFAFPSDQAIIEENLVLWLKKLEAGLENHITILPAQEWKPPLPAYDFLSMIDAATSQRGTRKVPKCMKETDVQENDKEQHEDKSAVRKEPIETLRIKHWNRSNWFKEAEKSFRRDKELGCSKVN
